From patent publication US20120322060A1, “DIAGNOSIS AND MONITORING TREATMENT OF PSYCHIATRIC DISEASES WITH SPADIN AND RELATED METHODS” (CENTRE NATIONAL DE LE RECHERCHE SCIENTIFIQUE - CNRS -, priority 2011, published 2012)
Entries after “also recorded” stand apart in the source; their conditions may differ. No end group written: not given here.

Tested on: mice
Test: Mouse locomotion activity
Type: in vivo
Details: i.p., short- or long-time (1 or 24 hours) after injection

Molecule | locomotor activity
APLPRWSGPIGVSWGLR [spadin] | Neither spadin nor fluoxetine had any effect; also recorded: no significant difference in locomotor activity
CNCCC(Oc1ccc(C(F)(F)F)cc1)c1ccccc1 (centres unmarked) [fluoxetine, Fluoxetine, reference compound] | Neither spadin nor fluoxetine had any effect
